This passage reports binding signal results from PMC7819943, “Rice protein-binding microarrays: a tool to detect cis-acting elements near promoter regions in rice”.

The list shows a part of the results.

This assay has as its target T1, OsSMF1 (Oryza sativa, UniProt Q6ZLB0 1-436).
T1 sequence: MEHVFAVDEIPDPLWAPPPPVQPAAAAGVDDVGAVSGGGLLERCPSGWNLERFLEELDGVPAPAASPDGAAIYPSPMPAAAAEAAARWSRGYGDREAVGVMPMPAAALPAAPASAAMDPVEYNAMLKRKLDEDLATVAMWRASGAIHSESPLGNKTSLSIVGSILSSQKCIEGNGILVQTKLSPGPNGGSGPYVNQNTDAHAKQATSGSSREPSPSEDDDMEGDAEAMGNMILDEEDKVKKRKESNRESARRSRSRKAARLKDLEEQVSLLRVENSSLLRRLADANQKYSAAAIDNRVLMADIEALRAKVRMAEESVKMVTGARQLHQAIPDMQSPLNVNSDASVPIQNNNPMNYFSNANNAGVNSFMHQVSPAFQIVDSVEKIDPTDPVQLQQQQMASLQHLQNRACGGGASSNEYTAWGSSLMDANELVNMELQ
In words: protein-binding microarray (RPBM); PBS, 2% BSA, 51.3 ng/ul salmon testes DNA, 50 uM zinc acetate, 200 nM TF, 25 C, 1 h; high values mean tight binding. The settings on record: protein: recombinant; tags: N-terminal polyhistidine and DsRed monomer fusion (pET32a); chain copies: 2; label: CyDye5-dUTP incorporated in the synthesized complementary strand; 3' TTTTT single-stranded linker to array surface; dsDNA, one strand shown. The essentials:
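Transcription factors, each fused N-terminally to a polyhistidine tag and DsRed, were expressed in E. coli BL21-CodonPlus and purified on Ni–NTA. A custom Agilent array was made double-stranded by primer extension with Cy5-dUTP and blocked with 2% BSA. It was incubated with 200 nM protein in PBS, 2% BSA, salmon testes DNA and 50 µM zinc acetate at 25 °C for 1 h, then washed. The binding signal is per-feature fluorescence intensity (arbitrary units) read on an Axon 4000B scanner.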
Take “GACACAAACAAAATCGAGAAGATGGCATACCTACCATACACGGAGTCACCTAGTGCAG”: the binding signal is 22800 fluorescence intensity (a.u.). The result for “TGGACACTTTGAGCTAAGCTCTCATCTTTCGTCTAAATCTCGGAGTCACCTAGTGCAG” reads 3150 fluorescence intensity (a.u.). Under “TGGGTGCCACGTCCGCGACGCGACCCGCTGGCGCTGTGGCCGGAGTCACCTAGTGCAG” stands 11900 fluorescence intensity (a.u.); under “TCAAACAACTTCTTTTCATTGTTGTGTATGACACTATACTCGGAGTCACCTAGTGCAG”, 3140 fluorescence intensity (a.u.).

In the case of “ATCAAACACACCAAATAAGCAAGTGGATGGTGGTGGTGGTCGGAGTCACCTAGTGCAG”, the binding signal was 3980 fluorescence intensity (a.u.). The result for “CTATCCGACAACGACGACGCCGGTGAAGGGGAACTCGTCCCGGAGTCACCTAGTGCAG” reads 3180 fluorescence intensity (a.u.); that for “GCGGTTCTGCCAGCATTTGATTGGTCCACGTGGTGCCATACGGAGTCACCTAGTGCAG”, 10400 fluorescence intensity (a.u.); that for “TTGTCTAAGGACAAAATTATCTGCCACGCTCCACTAAAATCGGAGTCACCTAGTGCAG”, 3240 fluorescence intensity (a.u.). On to “GAGCACTAGCAGAAGTGGCAGAGAGGAAGAGTAACCTAGCCGGAGTCACCTAGTGCAG”, for which the binding signal is 22900 fluorescence intensity (a.u.). For “ACCTCCCACACCTGTGTCGATCCAGGCAGGCCGAGCGCGACGGAGTCACCTAGTGCAG”, the binding signal is 43400 fluorescence intensity (a.u.). Consider “CATTCTTAATAGATAATTTGTTTTATATCCCTCACCGTACCGGAGTCACCTAGTGCAG”, for which the binding signal is 3320 fluorescence intensity (a.u.).

In the case of “TAAAGCTTTTATGAATGAATAGCCTCGCTGGCAAGTGGGCCGGAGTCACCTAGTGCAG”, the binding signal is 3560 fluorescence intensity (a.u.). Regarding “CGCGGATCTTCCTCCACAAGCCTCGTCGCGCTTGAGCTCCCGGAGTCACCTAGTGCAG”, the binding signal is 28200 fluorescence intensity (a.u.). The result for “GAGATGCCATCGGAATATTCTCCGTTTCCATCTCGTTCTGCGGAGTCACCTAGTGCAG” reads 3240 fluorescence intensity (a.u.); that for “AGGATTTCATGTGTTTTGGTTAACATATTCATGTGTGTCTCGGAGTCACCTAGTGCAG”, 3500 fluorescence intensity (a.u.); that for “AGCTCAGCTGTCACGGTGTCACCTGTCAGCGCCCACAACTCGGAGTCACCTAGTGCAG”, 6140 fluorescence intensity (a.u.). Under “GAGGCCGGGGTCGGGGCGAGCGAGGCGAGAGGGGAGGAGGCGGAGTCACCTAGTGCAG” stands 4480 fluorescence intensity (a.u.). Regarding “ACACTGTCTCCCTGACTGATCTGGCCGTTGGCACATCGTTCGGAGTCACCTAGTGCAG”, the binding signal was 3260 fluorescence intensity (a.u.). As for “CATGCATGATAAGATGGCTGTCATCAGTAGCACCTATGAGCGGAGTCACCTAGTGCAG”, the binding signal was 3660 fluorescence intensity (a.u.).

On to “GGCAACGCACCACGCTGCACGCGTCCGTGGTCGCCGCGAACGGAGTCACCTAGTGCAG”, for which the binding signal is 3150 fluorescence intensity (a.u.). The result for “CTGACCATGGTCAGAACGTGGCACCGAAGCTCACCAAGTTCGGAGTCACCTAGTGCAG” reads 3280 fluorescence intensity (a.u.).

On to “TCTGCTACAGTATAACAGTGCCCTTTCCCCACATCAGCCGCGGAGTCACCTAGTGCAG”, for which the binding signal was 4600 fluorescence intensity (a.u.).

“CCACTGTCCACATGCCCACATCATCTTCAACTGGGCCTACCGGAGTCACCTAGTGCAG”: the binding signal was 4200 fluorescence intensity (a.u.). “AGGTATGCACCTACGTACGTGGGTACGTATGCTTCCCCTCCGGAGTCACCTAGTGCAG”: the binding signal was 4130 fluorescence intensity (a.u.). As to “GTCAAGGGGTCTCAAGTCTCAACTCCAAAAGCCAATGGAACGGAGTCACCTAGTGCAG”, the binding signal is 32400 fluorescence intensity (a.u.).

For “GGGAAGGGACGCGTGGCGGCGTCCGTTGGCGGGACCAGATCGGAGTCACCTAGTGCAG”, the binding signal was 4870 fluorescence intensity (a.u.). The result for “ACGCGGCCACCGTGGACGCCGCCGCACGTACGTGGGCGTGCGGAGTCACCTAGTGCAG” reads 5080 fluorescence intensity (a.u.); that for “CGCCGCCTGCCGGCCACGCCTCCAGCCGCTGCTGCCGCTGCGGAGTCACCTAGTGCAG”, 3590 fluorescence intensity (a.u.); that for “CAGGATGAATGAAGCTCCTGTTGTTCGAGACGAGTGGCCTCGGAGTCACCTAGTGCAG”, 4290 fluorescence intensity (a.u.). For “ATTACATACTAATTACATATGTAAGTGAGGTGTAACTACTCGGAGTCACCTAGTGCAG”, the binding signal is 4160 fluorescence intensity (a.u.). In the case of “TTTCAACGAGAAGTCAAGATTCAAACTATTTCCTGTTCTCCGGAGTCACCTAGTGCAG”, the binding signal was 3620 fluorescence intensity (a.u.). Under “ATCTCCATTGCCATGCCATGTCATGCCAAATGCCCGAGTGCGGAGTCACCTAGTGCAG” stands 10200 fluorescence intensity (a.u.); under “TTATCGCTATCGGCTGGTATCAGCATCGGCTATTATCGGCCGGAGTCACCTAGTGCAG”, 3840 fluorescence intensity (a.u.).

On to “AGCCTTGCTCTTATGACGTAATGTCAGAGTGATATGAGTGCGGAGTCACCTAGTGCAG”, for which the binding signal was 6910 fluorescence intensity (a.u.). On to “CGTTTGGGCCACGTATAGTATCTTCTCGGGCCTAACCGGACGGAGTCACCTAGTGCAG”, for which the binding signal is 5970 fluorescence intensity (a.u.). For the sequence “TGGCAACGGCAAGAGGATGATGTAGGCGTCGACGGCGGAGCGGAGTCACCTAGTGCAG”, the binding signal is 3280 fluorescence intensity (a.u.). Under “GAGAATTTCACACGTCAAGCATTCTACACAACGCTAGTGTCGGAGTCACCTAGTGCAG” stands 4820 fluorescence intensity (a.u.). With “ATTTCGGCCCAGTACACATTCTCAATTATTAGGAAGCCCACGGAGTCACCTAGTGCAG”, the binding signal is 27200 fluorescence intensity (a.u.).

On to “TCTCACCTTGTTACATGTGTGTGTCGTGCAGGTAGTGAGTCGGAGTCACCTAGTGCAG”, for which the binding signal is 3140 fluorescence intensity (a.u.).

Regarding “GTCCTTTTCTAATGATTCACCTTCACTTGATCCATCTGAGCGGAGTCACCTAGTGCAG”, the binding signal was 3980 fluorescence intensity (a.u.). As to “GTGTGGGGATAAACAGAGGTAGAGACATGTGTCAGATGACCGGAGTCACCTAGTGCAG”, the binding signal is 3150 fluorescence intensity (a.u.).

As for “CTCGCGCTTGCGCCTCTGGATCCGCCGCGCGTGTCCACCTCGGAGTCACCTAGTGCAG”, the binding signal was 3600 fluorescence intensity (a.u.).
